Out of some 360,000 compounds screened, about 7,500 (2.1%) were called active. The inconclusive results got no clear call from the source; some entries with a clear call stand among them for comparison. The call rests on the fitted dose curve; in most records, active means well fitted inhibition curve with a large enough effect; inconclusive means small, poorly fitted or top-dose-only effect, or effect the other way; inactive means flat fitted curve, though single readings scatter. A potency beside an inconclusive call is a rough fit, not a confirmed value.
Assay: Nrf2 qHTS screen for inhibitors; further: nearly all actives have a fitted effect of over 60% in size
Details: A549 ARE-Fluc reporter, luciferase luminescence, 18-24 h; series mostly up to 46 µM
Summary of the method: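 Quantitative HTS in A549 cells stably bearing an antioxidant response element-firefly luciferase construct. Inhibition of Nrf2-driven transcription was scored by luminescence after 18-24 h of compound exposure at 37 °C.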
Potency means the concentration at half of the fitted maximal effect.

| Structure (SMILES) | Potency |
| --- | --- |
| O=C(COC(=O)c1cc([N+](=O)[O-])ccc1N1CCOCC1)c1ccc(Br)cc1 | active: 25.9 µM |
| CCC1=Nc2cc(C(=O)NCCc3ccccc3)ccc2Sc2ccc(Cl)cc21 | inconclusive: 29.1 µM [falling, single point] |
| CCc1cc2c(cc3c(=O)n(CC(=O)NCc4cccc(Cl)c4)nc(CC)n32)s1 | inactive |
| CCC(C)Sc1cc(C)c(C#N)c2nc3ccccc3n12 (stereo not drawn) | inconclusive: 23.1 µM [falling, single point] |
| Nc1ccccc1C(=O)N/N=C1\C2CN3CCN(C2)CC1(c1ccccc1)C3 | inconclusive: 16.4 µM [activator, single point] |
| O=C(Nc1ccc(F)cc1)c1oc2ccccc2c1NC(=O)C1CC1 | inconclusive: 0.231 µM [falling, full curve, poor fit] |
| CC(C)(C)OC(=O)Cn1c(=O)cnc2ccccc21 | inconclusive: 25.9 µM [activator, single point] |
| CCOC(=O)c1c(NC(=O)CN2CCN(C(=O)c3ccco3)CC2)sc2c1CCCC2 | inactive |
| COc1ccccc1NC(=O)C(=O)NCCC1CCCCN1S(=O)(=O)c1ccccc1 (stereo not drawn) | inconclusive: 29.1 µM [falling, single point] |
| COc1ccc(-n2nc3cc(C)c(NC(=O)COc4cccc(C)c4)cc3n2)cc1 | inactive |
| Cc1cc(/C=C(\C#N)C(=O)NCc2cccs2)c(C)n1-c1ccccc1F | inconclusive: 2.06 µM [activator, full curve, poor fit] |
| CC(C)(C)OC(=O)CC[C@@H](C(=O)N1CCN(C(=O)OC(C)(C)C)CC1)n1cc(C(Cc2ccc(O)cc2)NC(=O)OC(C)(C)C)nn1 (stereo partly drawn) | inconclusive: 23.1 µM [falling, partial curve, poor fit] |
| CCOC(=O)c1ccc(NC(=S)Nc2cccc(C)n2)cc1 | inconclusive: 20.6 µM [falling, single point] |
| CN(C)c1ccc(C2/C(=C(/O)c3ccc(Br)cc3)C(=O)C(=O)N2C)cc1 (stereo not drawn) | inactive |
| C1=C(CCNc2nnnn2-c2ccccc2)CCCC1 | inconclusive: 29.1 µM [falling, single point] |
| CCSC1=NC2(CCN(C(=O)NC3CCCCC3)CC2)N=C1c1ccc(C)cc1 | inconclusive: 1.64 µM [activator, partial curve, poor fit] |
| Fc1ccccc1Nc1nc2ccccc2o1 | inconclusive: 20.6 µM [activator, partial curve] |
| O=C(Nc1nc(-c2ccc(Cl)cc2Cl)cs1)C1CCCO1 (stereo not drawn) | inconclusive: 18.4 µM [falling, partial curve, poor fit] |
| Cc1ccccc1NC(=O)CSc1ncc2c(n1)-c1ccccc1N(C)S2(=O)=O | inconclusive: 20.6 µM [activator, single point] |
| COc1cc(CN2CCC(C(N)=O)CC2)ccc1OCc1ccccc1 | inconclusive: 4.11 µM [activator, full curve] |
| CCOc1cc2[nH]c(=S)n(Cc3ccc(C(=O)N4CCN(C)CC4)cc3)c(=O)c2cc1OCC | inconclusive: 14.6 µM [falling, partial curve] |
| CC(=O)Nc1cccc(Oc2cc(C#N)c(C#N)cc2N2CCCCCC2)c1 | inconclusive: 29.1 µM [falling, single point] |
| COc1cccc(/C(C)=N/Nc2ccc(S(=O)(=O)N3CCCCC3)cn2)c1 | inconclusive: 29.1 µM [falling, single point] |

| Structure (SMILES) | Potency |
| --- | --- |
| COCCCNc1oc(-c2ccc(COc3ccccc3C)o2)nc1C#N | inconclusive: 29.1 µM [falling, single point] |
| COc1cc(OC)c(NC(=O)Cn2c(=O)nc(-c3ccccc3)c3ccccc32)cc1Cl | inactive |
| CCC(C)c1ccc(NC(=O)Nc2cnccn2)cc1 (stereo not drawn) | inconclusive: 9.2 µM [activator, partial curve, poor fit] |
| COc1ccc(CCNc2nc3ccccc3n3cnnc23)cc1OC | inconclusive: 0.517 µM [falling, partial curve, poor fit] |
| CC1CN(C(=O)C(C)N2CCN(c3cccc(Cl)c3)CC2)CC(C)O1 (stereo not drawn) | inconclusive: 5.8 µM [falling, partial curve, poor fit] |
| C[C@H](NC(=O)c1ccc2ccccc2c1)C(=O)N1CCC2(CC1)NCCc1[nH]cnc12 | inconclusive: 16.4 µM [activator, partial curve, poor fit] |
| CC1=C(C(=O)Nc2cccc(F)c2)C2(CCCCCC2)OC1=O | inactive |
| c1ccc(C(c2ccccc2)N2CCN(Cc3nnnn3C3CCCCC3)CC2)cc1 | inconclusive: 32.6 µM [falling, single point] |
| COc1ccc(CNC(=O)Cn2cnc3c(SC)nc(N)nc32)cc1 | inconclusive: 20.6 µM [falling, single point] |
| Cc1cc(C)nc(Sc2ccc([N+](=O)[O-])cc2[N+](=O)[O-])n1 | inconclusive: 29.1 µM [falling, single point] |
| Cc1c(Cl)cccc1-c1ccc(C(=O)Nc2ccc3oc(-c4cccnc4)nc3c2)o1 | inconclusive: 5.8 µM [falling, full curve] |
| C=C1CC(Cn2cc(Br)c(=O)[nH]c2=O)(c2ccc(-c3ccccc3)cc2)OC1=O (stereo not drawn) | inconclusive: 20.6 µM [falling, partial curve] |
| Cc1ccc2nsnc2c1S(=O)(=O)N(Cc1cc2cccc(C)c2[nH]c1=O)CC1CCCO1 (stereo not drawn) | inactive |
| COc1cc(NC(=O)c2cc(-c3ccccc3Cl)on2)cc(OC)c1OC | inconclusive: 11.6 µM [falling, partial curve] |
| CCOc1ccc(-c2cc(C(=O)NCCCn3ccnc3)c3ccccc3n2)cc1 | inactive |
| O=C(NNC(=O)c1cc(-c2ccccc2)n(-c2ccccc2)n1)c1cccc([N+](=O)[O-])c1 | inactive |
| Cc1ccc(-c2csc3nc[nH]c(=O)c23)cc1 | inconclusive: 1.84 µM [falling, partial curve, poor fit] |
| CN(C)S(=O)(=O)c1cc(NC(=O)CN2CCN(c3ccccc3O)CC2)ccc1Cl | inconclusive: 5.8 µM [falling, partial curve, poor fit] |
| Cc1ccc(NC(=O)c2ccc(OC(=S)N3CCOCC3)cc2)cc1 | inactive |
| CC1CN(C(=O)c2ccc(CNS(=O)(=O)c3cccc(C(F)(F)F)c3)cc2)CC(C)O1 (stereo not drawn) | inconclusive: 5.62 µM [falling, single point] |
| O=C(Cn1cccc1C(=O)c1ccccc1)NCc1ccc(Cl)cc1 | inconclusive: 1.64 µM [activator, partial curve] |
| CCCCCOc1ccc(C(=O)CCN2CCOCC2)cc1 | inconclusive: 32.6 µM [activator, partial curve, poor fit] |
| CCc1sc(C(=O)Nc2cccc(-n3cnnn3)c2)cc1C | inconclusive: 10.3 µM [falling, partial curve] |

| Structure (SMILES) | Potency |
| --- | --- |
| O=c1c2ccccc2oc2ccc(NCCCn3ccnc3)cc12 | inconclusive: 23.1 µM [activator, single point] |
| Nc1c(C(=O)N2CCOCC2)sc2nc3c(cc12)CCCC3 | inactive |
| Cc1ccc(NC(=O)N(C2=NCC(C)S2)c2ccccc2)cc1 (stereo not drawn) | inconclusive: 20.6 µM [activator, single point] |
| O=C(Cc1cccs1)NCc1cccc(Cl)c1 | inconclusive: 16.4 µM [activator, partial curve] |
| CC(C)c1ccc(NC2CCCN(C(=O)c3n[nH]c4c3CCC4)C2)cc1 (stereo not drawn) | active: 10.3 µM |
| O=[N+]([O-])c1cccc(-c2nc3ccccc3s/c2=N/O)c1 | inconclusive: 29.1 µM [activator, single point] |
| COc1ccccc1Cn1nnc2c(=O)[nH]c(C3CCN(C(=O)c4ccc(C)cc4)CC3)nc21 | inactive |
| COc1ccc(NC(=O)Nc2ccc(Cc3ccncc3)cc2)c(OC)c1 | active: 16.4 µM |
| CCc1ccc(Nc2nnc(SCC(=O)Nc3cccnc3Cl)s2)cc1 | inconclusive: 0.146 µM [falling, full curve, poor fit] |
| CCOc1ccc2nc(N/C(N)=N/C(=S)Nc3cccc(C)c3)nc(C)c2c1 | inactive |
| O=C(Nc1ccc(Cl)cc1)c1cccs1 | inconclusive: 3.66 µM [activator, full curve] |
| O=C(Nc1cccc(Cl)c1)c1cc(-c2ccco2)on1 | inactive |
| Cc1ccccc1Nc1nnc(SCC(=O)Nc2ccccc2[N+](=O)[O-])s1 | inactive |
| COc1ccc(/C=C2\SC(=O)N(CCCC(=O)Nc3cc(Cl)ccc3C(=O)O)C2=O)cc1 | active: 0.731 µM |
| O=C(CC1CC2CCC1C2)N1CCN(S(=O)(=O)c2ccccc2[N+](=O)[O-])CC1 (stereo not drawn) | inactive |
| O=C(NC(=S)Nc1ccccc1N1CCOCC1)c1ccc(-c2cccc(Cl)c2)o1 | inactive |
| Oc1ccccc1-c1nc(NCc2ccco2)c2ccccc2n1 | inactive |
| COc1ccc([C@@]2(O)c3c(ccc(CC=C(C)C)c3O)NC(=O)[C@@H]2OC)cc1 | inconclusive: 2.91 µM [falling, partial curve, poor fit] |
| O=C(O)c1ccc(N=Nc2c(O)[nH]c3ccc(Br)cc23)cc1 | inconclusive: 5.17 µM [activator, partial curve] |
| Nc1c(-c2cccs2)cnn1-c1nc(-c2ccc(Cl)cc2Cl)cs1 | inconclusive: 1.84 µM [falling, full curve, poor fit] |
| N#Cc1nc(-c2cccs2)oc1N1CCN(Cc2ccccc2)CC1 | inactive |
| CC(=O)OC1CCC2(C)C(COc3ccc4ccc(=O)oc4c3)C(C)(O)CCC2C1(C)C (stereo not drawn) | inconclusive: 9.2 µM [falling, partial curve] |

Five entries picked at random from the list so far:

| Structure (SMILES) | Potency |
| --- | --- |
| CCOc1cc2[nH]c(=S)n(Cc3ccc(C(=O)N4CCN(C)CC4)cc3)c(=O)c2cc1OCC | inconclusive: 14.6 µM [falling, partial curve] |
| O=C(O)c1ccc(N=Nc2c(O)[nH]c3ccc(Br)cc23)cc1 | inconclusive: 5.17 µM [activator, partial curve] |
| Nc1c(-c2cccs2)cnn1-c1nc(-c2ccc(Cl)cc2Cl)cs1 | inconclusive: 1.84 µM [falling, full curve, poor fit] |
| Cc1c(Cl)cccc1-c1ccc(C(=O)Nc2ccc3oc(-c4cccnc4)nc3c2)o1 | inconclusive: 5.8 µM [falling, full curve] |
| CCOC(=O)c1ccc(NC(=S)Nc2cccc(C)n2)cc1 | inconclusive: 20.6 µM [falling, single point] |

Reference: PubChem BioAssay AID504444 (National Center for Advancing Translational Sciences (NCATS), 2011)
